# Percent effect of library compounds

From ChEMBL document CHEMBL3988442, “University of Dundee, Small-Polar-MMV Screening Library” (2021).

Each number is a percent effect as filed.
The record does not define 0% and 100%; most values in the screen are far below 50% and negative numbers occur (in some assays of this library far below -100).
Compounds were drawn at random from those tested, without regard to their results.
Two or more numbers in one place are separate tests of the same structure; such repeats can differ widely.

A: 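Whole-cell growth test on Mycobacterium tuberculosis, read after 4 days in a medium based on cholesterol and the lipid DPPC; the read-out is not stated. Tested at 50 µM. The record gives no direction; compounds that gave an IC50 in retests scored well above the rest, so higher reads as more growth inhibition. Of about 69,000 compounds tested this way, about 370 (0.54%) reached 50% or more in at least one test.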
B: 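Phenotypic screen: M. tuberculosis growth, glucose 7H9 medium, 3 days; the read-out is not stated. Concentration: 50 µM. The record gives no direction; compounds that gave an IC50 in retests scored well above the rest, so higher reads as more growth inhibition. Of about 69,000 compounds tested this way, about 760 (1.1%) reached 50% or more in at least one test.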

Compound | A | B
CCN1CCCC2(CCN(Cc3nnc(C4CC4)o3)C2)C1=O (configuration not stated) | 4.839 | 4.073
Fc1cnc(N2CCCC3(CN(Cc4cccs4)CCO3)C2)nc1.O=C(O)C(F)(F)F (configuration not stated) | -1.001 | 10.2
CNc1cc(C2CCCN2C(=O)c2ccc3oc(=O)n(C)c3c2)ccn1 (configuration not stated) | -21.28 | -3.789
O=C(Cn1cnnn1)NCC1(O)CCCc2ccccc21 (configuration not stated) | -21.59 | -37.89
CC(c1ncc(C(C)(C)C)o1)N1CCN(Cc2ccco2)CC1 (configuration not stated) | -5.636 | 16.13
CCNc1cc2c(nn1)CCN(C(=O)c1cccc3c1OCO3)C2 | 2.099 | 27.52
Cn1ncc2c1C(COCC1CC1)CN(S(C)(=O)=O)C2 (configuration not stated) | -11.66 | 4.757
CCCC(=O)NC1CCc2c(ccc(=O)n2Cc2csc(C)n2)C1.O=C(O)C(F)(F)F (configuration not stated) | -6.829 | 16.77
CCOc1ccc(-n2nnc(C(=O)O)c2-c2ccncc2)cc1 | -8.216 | -31.66 and -10.63
Cn1c(CN2CCCC(Cn3cc(CCO)nn3)C2)cc2ccccc21 (configuration not stated) | 9.65 | -6.098
COc1cc2c(cc1OC)C(=O)C(Sc1nncn1C)C2 (configuration not stated) | -15.36 | -11.04
COCC1CN(C(=O)c2cccc(C)n2)Cc2nccn2C1.O=C(O)C(F)(F)F (configuration not stated) | -14.12 and -14.7 | 7.304
CCN(C(=O)CN(Cc1cccc(O)c1)C1CCC(O)CC1)C1CC1 (configuration not stated) | 2.446 and -19.84 | -5.11 and 0.3727
CCOC(=O)C1CCN(c2cc(C(=O)N3CCOCC3)nc(C)n2)CC1 | 19.91 | 14.15
[H][C@@]12C[C@H](c3nnc(C)o3)CN(S(=O)(=O)N(C)C)[C@]1([H])CCO2 | 6.414 | -11.91 and 12.89
Cc1scc(C(=O)N2CCC3(CCCN(C)C3=O)C2)c1-c1ccccc1 (configuration not stated) | 7.891 | -19.96
CC(SCC(=O)N(C)CC(=O)NC1CC1)c1ccc(F)c(F)c1 (configuration not stated) | -13.94 | -5.088
C[C@]1(O)CN(Cc2ncccc2F)CC[C@@H]1Oc1ccccc1 | 4.599 | 12.86
O=C(CCn1cc(Cl)cn1)N1CCC2(CC1)OCCCC2O (configuration not stated) | 1.961 | -13.31
CCN(Cc1nc(COC)no1)Cc1cc2ccc(F)cc2[nH]c1=O | 6.544 | 4.21
COc1ccc(-c2nnc(C(C)N3CCOC(C)(C)C3)o2)cc1 (configuration not stated) | -9.649 | 9.063 and -7.813
O=C(O)C(F)(F)F.c1ccc(OCc2nnn3c2CN(c2ncccn2)CCC3)nc1 | -2.78 | -28.95 and -2.17
CN1CCCC2(CCN(C(=O)c3ccncc3)C2)C1 (configuration not stated) | 6.303 | -13.05
COc1cccc(CNCCNS(=O)(=O)Cc2ccccc2)c1 | -3.379 | -1.363 and -13.47
CC(C)c1nc(C2CCCN(C(=O)CCc3cscn3)C2)no1 (configuration not stated) | 3.185 | 6.875 and 13.26
CCc1cccc2cc(CNCCOC)c(=O)[nH]c12 | -35.32 and -3.543 | 11.37
O=C(O)C(F)(F)F.[H][C@]12CCN(c3ccccn3)[C@@]1([H])CCC(=O)N2CC1CCOCC1 | 2.307 | -18.25 and -6.951
CCc1nnc(CN(C)Cc2cccc(C(=O)Nc3cnn(C)c3)c2)o1 | -10.23 | 9.497
COCCC(=O)N1C[C@@H](c2ccc(F)c(F)c2)[C@@]2(CCCC(=O)N2)C1 | 12.41 | 19.57
CCN1CC(CN(C)Cc2nc(-c3ccoc3)oc2C)CC1=O (configuration not stated) | 5.731 | 15.26
O=C(O)C(F)(F)F.O=C(O)C(F)(F)F.[H][C@@]12CCCO[C@]1([H])[C@H](NC(=O)CC1CC1)CN(Cc1ccccn1)C2 | 7.925 | 1.471 and -2.229
CC(C)CN1CC2(CCN(C(=O)c3cn4cccnc4n3)CC2)CC1=O | 10.99 | -14.47
O=C(NCCCO)Nc1cnc2cc(Cl)ccc2c1O | -17.11 | -6.345
CCN(Cc1cnc(NCc2ccccc2)nc1)C1CCS(=O)(=O)C1 (configuration not stated) | -9.724 | 4.901
O=C(Cc1csc(-c2ccccc2F)n1)NCc1ccc(C(=O)O)cc1 | -26.14 | -4.862
CCn1cc(CN2CCCN(C(=O)c3ccc(C)o3)CC2)cn1 | -2.904 | -1.802
COc1ccc(CN(C)C(=O)NCc2c(C)cc(C)nc2OC)cc1 | -3.155 | 19.38
CCc1ccc(O)c(C(=O)N2CCN(CC(=O)N3CCCCC3)CC2)c1 | -7.793 | -31.73
CCN(C)S(=O)(=O)c1ccc(Cl)cc1C#N | -0.6152 | 7.903 and -20.09
Cc1nnc2n1CCN(C(=O)c1cn(-c3ccc(F)cc3)nn1)C2 | 32.37 | 2.606
Cn1cnc2c1CCN(Cc1csc(Cc3ccccc3)n1)C2 | -12.24 | 18.33
Cc1nc2n(n1)CC(NCc1nc3ccccc3o1)CC2 (configuration not stated) | -23.38 | -13.18
[H][C@]12CC[C@]([H])(CN(c3cnccn3)C1)N(C(=O)c1sc(NC)nc1C)C2 | -20.91 and -8.818 | -4.037
CC(NC(=O)CCCn1cnc2ccccc2c1=O)c1ncn[nH]1 (configuration not stated) | 5.567 | 8.204
CCn1ncc(CNc2[nH]cnc3nncc2-3)c1C | -4.704 | 5.505 and -0.3188
O=C(c1nnn(-c2ccc(Cl)cc2)n1)N(CCO)Cc1ccccc1 | 2.904 | -6.048
CC(C)n1ccc2c(NC(=O)c3n[nH]c4c3CCC4)cccc21 | 29.41 | 41.72
Cc1ncoc1C(=O)N1CCc2[nH]nc(-c3ccc4c(c3)OCO4)c2C1 | -2.913 and -8.682 | -10.39 and 3.683
CC(C)c1cc(C(=O)N(C)Cc2cccc3ncccc23)n(C)n1 | -1.456 | 28.22
CCNC(=O)CCC(=O)NC(C)Cc1ccccc1Br (configuration not stated) | 8.926 | 35.94

For reference, 3 entries once more:

Compound	A	B
CC(C)CN1CC2(CCN(C(=O)c3cn4cccnc4n3)CC2)CC1=O	10.99	-14.47
CCN1CCCC2(CCN(Cc3nnc(C4CC4)o3)C2)C1=O (configuration not stated)	4.839	4.073
Cn1cnc2c1CCN(Cc1csc(Cc3ccccc3)n1)C2	-12.24	18.33